According to PMC9569474:
No constants are given. Whether binding was seen depends on the method and setting. Binding seen in cells or lysates may run through a third protein. Some entries that bind do so weakly or less than the wild type. Where a sequence is shown, tags or fusion partners need not be part of it.

By UniProt entry, the sequences of proteins in these tests, tags left out. Residues count along the entry.
UniProt B5DFG1, residues 78-580: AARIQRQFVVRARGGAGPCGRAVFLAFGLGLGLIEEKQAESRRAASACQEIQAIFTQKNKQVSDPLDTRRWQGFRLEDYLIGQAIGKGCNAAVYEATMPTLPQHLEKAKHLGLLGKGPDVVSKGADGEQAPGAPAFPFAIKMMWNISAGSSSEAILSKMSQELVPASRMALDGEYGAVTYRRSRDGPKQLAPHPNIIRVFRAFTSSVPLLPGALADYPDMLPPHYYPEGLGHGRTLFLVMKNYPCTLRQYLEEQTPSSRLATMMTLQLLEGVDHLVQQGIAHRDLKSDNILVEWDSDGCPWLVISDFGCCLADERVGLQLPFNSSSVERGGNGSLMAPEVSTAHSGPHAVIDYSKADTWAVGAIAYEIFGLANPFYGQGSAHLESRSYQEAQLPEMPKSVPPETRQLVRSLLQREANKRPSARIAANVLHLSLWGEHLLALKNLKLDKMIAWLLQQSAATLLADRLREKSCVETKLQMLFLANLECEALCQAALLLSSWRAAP

Target: PTEN-induced putative kinase 1 (PINK1) (rat (endogenous in PC12)) (UniProt B5DFG1)
Assay: co-IP; PC12 cells treated with graded PbAc; lysis in 50 mM Tris-HCl, 150 mM NaCl, 1% Triton X, 2 mM EGTA, 1 mM MgCl2, 10% glycerol, NEM, MG132; anti-PINK1 on protein A agarose, overnight at 4 °C; beads without antibody as negative control; western blot for MFN2

- binding: binds
B1: Mitofusin2 (MFN2) (protein, UniProt Q8R500 1-757)
chain: MSLLFSRCNSIVTVKKDKRHMAEVNASPLKHFVTAKKKINGIFEQLGAYIQESAGFLEDTHRNTELDPVTTEEQVLDVKGYLSKVRGISEVLARRHMKVAFFGRTSNGKSTVINAMLWDKVLPSGIGHTTNCFLRVGGTDGHEAFLLTEGSEEKKSVKTVNQLAHALHQDEQLHAGSLVSVMWPNSKCPLLKDGLVLMDSPGIDVTTELDSWIDKFCLDADVFVLVANSESTLMQTEKQFFHKVSERLSRPNIFILNNRWDASASEPEYMEEVRRQHMERCTSFLVDELGVVDRAQAGDRIFFVSAKEVLSARVQKAQGMPEGGGALAEGFQVRMFEFQNFERRFEECISQSAVKTKFEQHTVRAKQIAEAVRLIMDSLHIAAQEQRVYCLEMREERQDRLRFIDKQLELLAQDYKLRIKQMTEEVERQVSTAMAEEIRRLSVLVDEYQMDFHPSPVVLKVYKNELHRHIEEGLGRNMSDRCSTAIASSLQTMQQDMIDGLKPLLPVSVRNQIDMLVPRQCFSLSYDLNCDKLCADFQEDIEFHFSLGWTMLVNRFLGPKNSRRALLGYNDQVQRPLPLTPANPSMPPLPQGSLTQEELMVSMVTGLASLTSRTSMGILVVGGVVWKAVGWRLIALSFGLYGLLYVYERLTWTTRAKERAFKRQFVEYASEKLQLIISYTGSNCSHQVQQELSGTFAHLCQQVDITRDNLEQEIAAMNKKVEALDSLQSKAKLLRNKAGWLDSELNMFIHQYLQPSR
